The values below come from US20100323456A1, “Endothelin Receptors in Morphine Withdrawal” (priority 2006, published 2010).

What is called EC50 is the concentration giving half of the maximal effect.

The target in the assay is G-proteins coupled to opioid and ET receptors. The assay can be described thus: [35S]GTPγS binding assay (G-protein stimulation) in neuronal membranes of neonatal rat brain, placebo and morphine withdrawal groups. The class given is biochemical. Particulars: read-out: EC50 for stimulated [35S]GTPγS binding. On the technique in general: GTPγS resists hydrolysis and so accumulates on activated G proteins.

Structures are written as SMILES. Read-outs that look alike come from different tables or passages of the source.

As for `CN1CC[C@]23c4c5ccc(O)c4O[C@H]2[C@@H](O)C=C[C@H]3[C@H]1C5` [Morphine], the EC50 reads like this: (morphine withdrawal group) 28.78 ± 0.17 nM; (placebo group) 170.6 ± 0.1 nM.
